This note sets out measurements from publication PMC11883276.

Amino acid sequences for entries named in this document (tags omitted). A change or cut given only in a name is not applied to a line headed by its entry. Residues count along the entry.
UniProt P12830, residues 155-709: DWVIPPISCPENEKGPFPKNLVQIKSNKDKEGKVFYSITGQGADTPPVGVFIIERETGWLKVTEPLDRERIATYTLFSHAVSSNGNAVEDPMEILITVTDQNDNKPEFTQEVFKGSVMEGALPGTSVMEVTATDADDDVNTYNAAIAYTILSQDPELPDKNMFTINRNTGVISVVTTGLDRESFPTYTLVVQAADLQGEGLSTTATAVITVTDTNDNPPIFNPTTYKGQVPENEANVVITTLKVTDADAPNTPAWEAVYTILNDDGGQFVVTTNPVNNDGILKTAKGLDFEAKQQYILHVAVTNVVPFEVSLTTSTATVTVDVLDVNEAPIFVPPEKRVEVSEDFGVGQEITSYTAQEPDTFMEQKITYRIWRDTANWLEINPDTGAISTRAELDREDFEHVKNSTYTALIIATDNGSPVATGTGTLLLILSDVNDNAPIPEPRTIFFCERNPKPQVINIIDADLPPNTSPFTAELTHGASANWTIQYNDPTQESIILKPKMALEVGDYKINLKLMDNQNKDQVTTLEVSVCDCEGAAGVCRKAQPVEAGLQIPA
UniProt P19022: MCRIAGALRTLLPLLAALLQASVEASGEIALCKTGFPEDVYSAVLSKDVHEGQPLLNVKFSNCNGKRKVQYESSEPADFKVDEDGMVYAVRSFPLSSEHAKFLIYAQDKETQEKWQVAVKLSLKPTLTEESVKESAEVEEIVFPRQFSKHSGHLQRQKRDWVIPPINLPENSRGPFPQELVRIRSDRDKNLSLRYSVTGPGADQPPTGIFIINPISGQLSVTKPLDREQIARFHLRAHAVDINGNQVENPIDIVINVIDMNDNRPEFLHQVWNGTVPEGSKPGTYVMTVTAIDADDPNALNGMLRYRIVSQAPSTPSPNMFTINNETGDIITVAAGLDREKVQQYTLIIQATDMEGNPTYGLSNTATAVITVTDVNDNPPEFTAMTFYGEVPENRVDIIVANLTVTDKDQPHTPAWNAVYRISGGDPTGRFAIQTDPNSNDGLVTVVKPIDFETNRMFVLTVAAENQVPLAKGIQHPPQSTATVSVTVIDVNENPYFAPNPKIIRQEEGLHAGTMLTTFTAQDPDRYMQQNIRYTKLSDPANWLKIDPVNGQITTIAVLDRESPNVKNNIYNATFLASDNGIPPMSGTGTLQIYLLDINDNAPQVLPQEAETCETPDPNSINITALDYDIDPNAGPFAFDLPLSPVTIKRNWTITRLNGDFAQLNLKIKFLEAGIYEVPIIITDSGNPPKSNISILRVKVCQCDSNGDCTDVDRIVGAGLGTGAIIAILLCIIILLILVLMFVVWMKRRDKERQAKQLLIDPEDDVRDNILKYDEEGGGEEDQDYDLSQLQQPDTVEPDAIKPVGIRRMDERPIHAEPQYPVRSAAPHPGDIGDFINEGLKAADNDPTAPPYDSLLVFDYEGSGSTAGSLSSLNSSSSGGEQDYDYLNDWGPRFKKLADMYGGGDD

These are yes or no findings as the source states them, for the method shown. Binding calls can cover weak binding; strength is not graded here.

For this test, the target named is Fc-tagged extracellular domain of E-cadherin (E-cad-Fc) (UniProt P12830). Briefly: capillary shear flow cell adhesion assay; cadherin-Fc (50 µg/ml) physisorbed on the inner walls of glass capillaries, blocked with BSA; A431-D^E-cad or A431-D^N-cad cells bound 20 min under static conditions, room temperature, low-serum medium with 2 mM Ca2+, then flow increased every 30 s; WSS50 from fits to Eqn 1; only the target ….

For the substance “full-length wild-type human N-cadherin on A431-D cells (A431-D^N-cad; A431-D^N-cad+FGFR) (from UniProt P19022) (receptor)”, the binding result is on record as “binds”.
